What was measured:
Assay type in all cases: cell-based
[1] = system: MCF-7/DOX (adriamycin resistant cell strain); test: SRB cytotoxicity assay, MCF-7/DOX; settings: Homo sapiens, MCF7-DOX, 72 h, read-out: ED50 MCF-7/DOX
Procedure: (§1) Human tumor cells, including MCF-7 (human breast adenomatous tumor), MCF-7/DOX (adriamycin resistant cell strain), MRS-SA (human uterine sarcoma), MES-SA/DX5 (adriamycin resistant cell strain), A 549 (human non-small cell lung), SKOV-3 (human ovarian), SKMEL-2 (human melanoma), XF-498 (human CNS), HCT-15 (human colon) were incubated at 37° C. in the presence of 5% CO2 using a DMEM culture medium. The respective cells were seeded into each well of 96-well plates at a concentration of 2×10^3˜5×10^3 cells/well. […] Each cell line of the resultant plates was fixed with trichloroacetic acid (TCA), stained with 0.4% SRB solution and rinsed with 1% acetic acid. Thereafter, the dye was dissolved in 10 mM Tris base to measure the optical density (OD) at 520 nm.

[2] = system: MES-SA (human uterine sarcoma); test: SRB cytotoxicity assay, MES-SA; settings: 72 h, read-out: ED50 MES-SA
Procedure: as §1

[3] = system: A 549 (human non-small cell lung); test: SRB cytotoxicity assay, A549; settings: A549, 72 h, read-out: ED50 A549
Procedure: as §1

[4] = system: SKOV-3 (human ovarian); test: SRB cytotoxicity assay, SK-OV-3; settings: SK-OV-3, 72 h, read-out: ED50 SK-OV-3
Procedure: as §1

## COc1cc2c(c(OC)c1OC)-c1ccc(OC)c(=O)cc1[C@@H](NC(C)=O)CC2 [Colchicine]
[1]
  EC50: 183 nM
[2]
  EC50: 16 nM
[3]
  EC50: 9 nM
[4]
  EC50: 8 nM

Reference: patent US7119229B2 (priority 2001, dated 2006)
